Measurements from US20260217845A1.
Results are given in words; binding and its absence hold for the method and conditions named. Some results given as binding are weak or reduced against the parent protein; the word gives no strength.

The chains behind the UniProt entries cited, without tags or fusion partners. Where a name states a change or a piece, a line headed by the entry shows the natural chain unless it says otherwise.
UniProt P20333: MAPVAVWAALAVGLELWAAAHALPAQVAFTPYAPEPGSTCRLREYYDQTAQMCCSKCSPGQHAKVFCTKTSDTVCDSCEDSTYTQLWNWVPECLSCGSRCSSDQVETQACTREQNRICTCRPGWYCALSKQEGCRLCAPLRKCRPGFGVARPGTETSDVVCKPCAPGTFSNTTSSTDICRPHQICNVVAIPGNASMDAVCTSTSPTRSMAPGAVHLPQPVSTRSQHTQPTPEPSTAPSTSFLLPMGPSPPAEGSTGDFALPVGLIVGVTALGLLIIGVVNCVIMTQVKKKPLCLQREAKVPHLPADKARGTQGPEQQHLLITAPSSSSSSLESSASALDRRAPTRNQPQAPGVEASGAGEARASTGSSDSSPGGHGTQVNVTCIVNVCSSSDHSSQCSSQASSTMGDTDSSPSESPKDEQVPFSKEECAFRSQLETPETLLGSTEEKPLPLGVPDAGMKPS

Columns and labels:
[1] = target: TNFR2 stably expressed on HEK293 NF-κB reporter (Luc) cells (human) (UniProt P20333); assay: flow cytometry on TNFR2 expressing HEK cells, with or without MR2-1 (legend of FIG. 11)
[2] = target: TNFR2 stably expressed on HEK293 NF-κB reporter (Luc) cells (human) (UniProt P20333); assay: flow cytometry on TNFR2 expressing HEK cells (clone 25), with or without MR2-1 (5 or 10 µg/ml), anti-His detection

| binding [1] | binding [2] | Binder |
| --- | --- | --- |
| binds | binds | N1402hu1 (VHH, not shown: small tags and cut ends) VHH: EVQLLESGGGLVQPGGSLRLSCAASGRTFSSLFMGWFRQAPGKEREFVASIRYPGLITNYADSAKGRFTISRDSAKNTVYLQMNSLRPEDTGVYYCAAAPTGRAFNYWGQGTQVTVSS |
| binds | binds | N1425hu1 (VHH, not shown: small tags and cut ends) VHH: EVQLVESGGGLVQPGGSLRLSCAVSGASLSRNAIIWVRQAPGKGLEWVSTIYDDGETYYADSVKGRFTISRDLAKNTVYLQMNSLRAEDTAVYYCAGSAFDFWGQGTQVTVSS |
| binds | binds | N1277hu1 (VHH, not shown: small tags and cut ends) VHH: EVQLLESGGGLVQPGGSLRLSCAASGLTLDYYAIGWFRQAPGKEREGVSCISTSDGSTYYADSVKGRFTISRDNAKNTVYLQMNSLRPEDTAVYYCATPGPYTYCAPYGSSWSRGYDYWGQGTQVTVSS |
